{"sequences": {"note": "Sequences of proteins named here, by UniProt entry; tags and fusion partners are left off. A change or cut given only in a name is not applied to a line headed by its entry.", "UniProt P51450": "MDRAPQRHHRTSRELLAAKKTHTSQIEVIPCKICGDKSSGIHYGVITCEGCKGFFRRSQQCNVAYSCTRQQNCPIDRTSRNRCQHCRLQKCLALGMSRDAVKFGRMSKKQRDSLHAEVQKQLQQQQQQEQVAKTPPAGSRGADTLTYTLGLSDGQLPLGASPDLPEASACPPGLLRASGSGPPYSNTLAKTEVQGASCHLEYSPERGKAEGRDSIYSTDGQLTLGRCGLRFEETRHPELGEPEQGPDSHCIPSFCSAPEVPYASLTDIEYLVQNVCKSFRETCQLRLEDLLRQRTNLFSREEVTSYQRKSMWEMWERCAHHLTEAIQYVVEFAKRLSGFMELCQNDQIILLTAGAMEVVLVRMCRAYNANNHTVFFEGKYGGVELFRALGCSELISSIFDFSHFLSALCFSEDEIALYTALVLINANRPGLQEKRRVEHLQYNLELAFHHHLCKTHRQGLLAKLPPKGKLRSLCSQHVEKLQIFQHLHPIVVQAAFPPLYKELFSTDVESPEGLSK"}, "source": "PubChem BioAssay AID2551", "about": "(National Center for Advancing Translational Sciences (NCATS), 2010)", "note": "In all, about 310,000 compounds went through this assay and about 17,000 (5.5%) were called active. The inconclusive results got no clear call from the source; some entries with a clear call stand among them for comparison. Calls follow the shape of the dose curve; as a rule, active = well fitted inhibition curve with a large enough effect; inconclusive = small, poorly fitted or top-dose-only effect, or effect the other way; inactive = no such curve, though single readings can be large or run the other way. Potencies of inconclusive entries are doubtful fits and often do not repeat. Some structures have more than one record in an assay (separate samples or runs), and their calls can disagree. % is scaled to controls: 0 for no effect and ±100 for the full control effect; potency is read from the fitted curve at half-maximal effect."}
{"molecular_target": "Nuclear receptor ROR-gamma (Mus musculus) (UniProt P51450)", "test": "qHTS for inhibitors of ROR gamma transcriptional activity; also: nearly all actives have a fitted effect of over 60% in size", "settings": "Drosophila S2 Gal4-RORgamma UAS-luciferase reporter, 20 h; activity change, negative = inhibition: at 53.6 µM (top of the series)", "procedure,_shortened": "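Using a luciferase readout, inhibitors were identified by reduced reporter activity in Drosophila cells coexpressing a copper-inducible Gal4–ROR gamma fusion and UAS-driven Photinus luciferase, incubated 20 hr after 700 uM copper sulfate.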"}
{"smiles": "Oc1cc(Cl)c(Cl)c(Cl)c1", "Potency": "inconclusive: 35.5 µM [activator, single point]"}
{"smiles": "COC(=O)[C@@H](NC(=O)c1cc(COc2cncc(Cl)c2)on1)c1ccccc1", "Potency": "inconclusive: 11.2 µM [activator, partial curve]"}
{"smiles": "N#CC(Cl)Cl", "Potency": "inconclusive: 2.82 µM [inhibitor, full curve]"}
{"smiles": "Cc1cccc(C)c1OCc1n[nH]c(=S)n1N", "Potency": "inconclusive: 11.2 µM [inhibitor, partial curve]"}
{"smiles": "O=C(COc1ccccc1)N1CCN(C/C=C/c2ccccc2)CC1", "activity change, negative = inhibition": "inactive: 24.1%"}
{"smiles": "Cn1c(=O)oc2cc(S(=O)(=O)N3CCCC(C(=O)Nc4ccccn4)C3)ccc21", "note": "(stereo unspecified)", "Potency": "inconclusive: 15.8 µM [activator, single point]"}
{"smiles": "CCC(=O)CCCCC[C@@H]1NC(=O)[C@H]2CCCCN2C(=O)[C@H]([C@@H](C)CC)NC(=O)[C@H](Cc2cn(OC)c3ccccc23)NC1=O", "activity change, negative = inhibition": "inactive: -1.5%"}
{"smiles": "CC(C)N1C(=O)/C(=C/C=C/c2ccco2)C(=O)N(Cc2ccco2)C1=O", "Potency": "inconclusive: 35.5 µM [inhibitor, single point]"}
{"smiles": "Cc1cc(C(=O)CS(=O)(=O)c2ccccc2)cc(C)c1OC(=O)N(C)C", "Potency": "inconclusive: 35.5 µM [inhibitor, single point]"}
{"smiles": "CC(C)c1ccc(-n2c(O)c(/C=N/NC(=O)c3ccccc3O)c(=O)[nH]c2=S)cc1", "Potency": "active: 0.316 µM"}
{"smiles": "CC1=C2[C@@H]3OC(=O)[C@@H](C)[C@@H]3CC[C@]2(C)C=CC1=O", "activity change, negative = inhibition": "inactive: -0.0211% [at 16.9 µM]"}
{"smiles": "O=C(c1ccccc1F)c1cn(CC(=O)N2CCCCC2)c2ccccc12", "Potency": "inconclusive: 35.5 µM [activator, single point]"}
{"smiles": "CC(=O)N1CCN(CC(=O)Nc2ccc(C#N)c(Cl)c2)CC1", "Potency": "inconclusive: 14.1 µM [activator, partial curve]"}
{"smiles": "NC1=C(Br)C(=O)c2ccccc2C1=O", "Potency": "inconclusive: 10 µM [inhibitor, partial curve, poor fit]"}
{"smiles": "FC(F)(F)c1ccccc1NC1=NCCCS1", "Potency": "inconclusive: 0.0355 µM [inhibitor, full curve, poor fit]"}
{"smiles": "CC(C)C(=O)c1cn(Cc2ccc(C#N)cc2)c2ccccc12", "Potency": "inconclusive: 5.62 µM [activator, full curve]"}
{"smiles": "CCCCCCn1c(N)c(C(=O)NCCN2CCOCC2)c2nc3ccccc3nc21", "Potency": "inconclusive: 35.5 µM [inhibitor, single point]"}
{"smiles": "Cc1ccc(OCCOc2cccc(C=C3C(=O)NC(=O)NC3=O)c2)c(C)c1", "Potency": "active: 7.94 µM"}
{"smiles": "CCN(CCO)c1ccc(N=Cc2c(O)n(C)c(=S)[nH]c2=O)cc1", "activity change, negative = inhibition": "inactive: -3.42%"}
{"smiles": "CCCCn1c(CN2CCN(c3ccc(F)cc3)CC2)nc2c1c(=O)n(C)c(=O)n2C", "Potency": "inconclusive: 3.16 µM [activator, single point]"}
{"smiles": "O=c1[nH]c(=O)n(CCC2=CCCCC2)c(O)c1C=NC1CCN(Cc2ccccc2)CC1", "activity change, negative = inhibition": "inactive: 13.4%"}
{"smiles": "O=S(=O)(c1ccc(Cl)cc1)N1CN2CCN(C2)C1", "Potency": "inconclusive: 35.5 µM [inhibitor, single point]"}
{"smiles": "C(#CCN1CCOCC1)COC/C=C/c1ccccc1", "Potency": "inconclusive: 35.5 µM [activator, single point]"}
{"smiles": "N#CCCn1cc(C(=O)Nc2ccc([N+](=O)[O-])cc2)c(-c2ccc3c(c2)OCCO3)n1", "Potency": "inconclusive: 35.5 µM [activator, single point]"}
{"smiles": "Oc1c(Cl)cccc1Cl", "activity change, negative = inhibition": "inactive: -2.28%"}
{"smiles": "CC1CCCN(C(=O)c2ccc(N3CC4CC(C3)c3cccc(=O)n3C4)c([N+](=O)[O-])c2)C1", "note": "(stereo unspecified)", "activity change, negative = inhibition": "inactive: -11.3%"}
{"smiles": "CCn1c(O)c(C=Nc2ccc(N3CCOCC3)cc2)c(=O)n(CC)c1=S", "Potency": "inconclusive: 11.2 µM [activator, partial curve, poor fit]"}
{"smiles": "O=C1NC(=O)C(CCc2ccncc2)(CCc2ccncc2)C(=O)N1Cc1ccccc1", "activity change, negative = inhibition": "inactive: 2.75%"}
{"smiles": "O=C(N/N=C/c1ccc([N+](=O)[O-])o1)c1cc([N+](=O)[O-])cc([N+](=O)[O-])c1O", "activity change, negative = inhibition": "inactive: -2.56%"}
{"smiles": "CCOc1cc2[nH]c(=S)n(CCCC(=O)N3CCC4(CC3)OCCO4)c(=O)c2cc1OCC", "Potency": "inconclusive: 28.2 µM [inhibitor, single point]"}
{"smiles": "O=C(Oc1ccccc1)N1CCC2(CCCN(C(c3ccccc3)c3ccccc3)C2)CC1", "Potency": "inconclusive: 5.62 µM [activator, partial curve]"}
{"smiles": "Cc1nn(Cc2ccccc2)c(C)c1C(=O)NCc1ccccc1F", "activity change, negative = inhibition": "inactive: 11.3%"}
{"smiles": "COC(=O)CCCc1[se]c2ccccc2c1I", "activity change, negative = inhibition": "inactive: 42%"}
{"smiles": "Cc1ccccc1NC(=S)NC(NC(=O)CF)C(Cl)(Cl)Cl", "note": "(stereo unspecified)", "Potency": "inconclusive: 35.5 µM [inhibitor, single point]"}
{"smiles": "Cc1cc(OC(=O)N(C)C)n(-c2ccccc2)n1", "activity change, negative = inhibition": "inactive: 30.1%"}
{"smiles": "CCC(C)n1c(O)c(C=NC(C)c2ccccc2)c(=O)[nH]c1=S", "note": "(stereo unspecified)", "Potency": "inconclusive: 3.55 µM [inhibitor, single point]"}
{"smiles": "CC1CCC[C@H](O)CCCCCc2cc(O)cc(O)c2C(=O)O1", "note": "(stereo partly specified)", "Potency": "inconclusive: 20 µM [activator, single point]"}
{"smiles": "COC(=O)c1ccc(N=C(c2ccccc2)c2c(O)n(C)c(=O)n(C)c2=O)cc1", "activity change, negative = inhibition": "inactive: 5.3%"}
{"smiles": "Clc1cccc(N2CCNCC2)c1Cl", "Potency": "inconclusive: 0.398 µM [activator, single point]"}
{"smiles": "COc1ccc(C(=O)C2CCCN(Cc3cccc(C)n3)C2)c(OC)c1", "note": "(stereo unspecified)", "Potency": "inconclusive: 6.31 µM [inhibitor, partial curve, poor fit]"}
{"smiles": "CCCc1nc2ccc(Br)cc2c(=O)n1-c1ccc([N+](=O)[O-])c(C(F)(F)F)c1", "Potency": "inconclusive: 31.6 µM [inhibitor, single point]"}
{"smiles": "N#Cc1c(Oc2cccc(OS(=O)(=O)CCCC(F)(F)F)c2)cccc1C(F)(F)F", "Potency": "inconclusive: 10 µM [activator, partial curve]"}
{"smiles": "Cc1nc(Cl)sc1C(=O)Nc1ccc2ccccc2c1", "activity change, negative = inhibition": "inactive: 15.5%"}
{"smiles": "O=C(NC(=O)c1c(F)cccc1F)Nc1cc(Cl)c(OC(F)(F)C(F)C(F)(F)F)cc1Cl", "note": "(stereo unspecified)", "Potency": "inconclusive: 12.6 µM [activator, partial curve, poor fit]"}
{"smiles": "CCCc1nc2ccccc2c(=O)n1-c1ccccc1OC", "activity change, negative = inhibition": "inactive: 33.1%"}
{"smiles": "CCOC(=O)c1cc2c(cn1)[nH]c1ccccc12", "Potency": "inconclusive: 20 µM [activator, single point]"}
{"smiles": "Cc1ccc(OCC(=O)NCCN2CCN(C(=O)COc3ccc(C)cc3)CC2)cc1", "Potency": "inconclusive: 10 µM [activator, partial curve]"}
{"smiles": "CCc1ccc(N2C(=O)NC(=O)/C(=C/c3cccn3CCOc3ccc(C)cc3)C2=O)cc1", "Potency": "inconclusive: 12.6 µM [activator, partial curve]"}
{"smiles": "CCCCn1c(=O)c(C(=O)NCc2ccccc2OC)c(O)c2ccccc21", "Potency": "inconclusive: 22.4 µM [inhibitor, single point]"}
{"smiles": "CN(C)c1ccc(/C=C2\\C(=O)NC(=O)N(Cc3ccc(F)cc3)C2=O)cc1", "activity change, negative = inhibition": "inactive: -0.003%"}
{"smiles": "O=C(c1ccc(Cl)cc1)C1CCCN(Cc2cccc3cccnc23)C1", "note": "(stereo unspecified)", "Potency": "inconclusive: 35.5 µM [inhibitor, single point]"}
{"smiles": "CCCCC(=O)N/N=C/c1c(O)n(-c2ccccc2)c(=O)[nH]c1=O", "activity change, negative = inhibition": "inactive: -21.3%"}
{"smiles": "S=c1[nH]nc(-c2ccn[nH]2)n1-c1ccccc1Cl", "Potency": "inconclusive: 11.2 µM [inhibitor, single point]"}
{"smiles": "Cc1c(OCC(F)(F)F)ccnc1CS(=O)c1nc2ccccc2[nH]1", "note": "(stereo unspecified)", "Potency": "active: 11.2 µM"}
{"smiles": "CCCCCn1c(=O)c(C(=O)Nc2c(C)n(C)n(-c3ccccc3)c2=O)c(O)c2ccccc21", "activity change, negative = inhibition": "inactive: 11.8%"}
{"smiles": "CN(Cc1ccc(OC(F)F)cc1)Cc1nc2c(Br)cc(Br)cc2c(=O)[nH]1", "Potency": "active: 3.16 µM"}
{"smiles": "Cc1ccc(N2C(=O)NC(=O)/C(=C/c3ccc(OC(=O)c4cccs4)cc3)C2=O)cc1", "activity change, negative = inhibition": "inactive: 2.62%"}
{"smiles": "O=C(N/N=C\\C1C(=O)NC(=S)N(c2ccccc2)C1=O)c1ccc(O)cc1", "note": "(stereo unspecified)", "Potency": "active: 1.41 µM"}
{"smiles": "CSc1ccc(C(=O)C2CCCN(Cc3cccnc3)C2)cc1", "note": "(stereo unspecified)", "Potency": "inconclusive: 31.6 µM [activator, single point]"}
{"smiles": "Fc1ccc(C(OCCN2CCN(CCCc3ccccc3)CC2)c2ccc(F)cc2)cc1", "Potency": "active: 28.2 µM"}
{"smiles": "Cc1cc(C=C2C(=O)N(C)C(=S)N(C)C2=O)c(C)n1C1CCCCC1", "activity change, negative = inhibition": "inactive: 5.5%"}
{"smiles": "COc1ccc(C(=O)Nc2cc(Cl)ccc2C(=O)O)cc1", "Potency": "inconclusive: 35.5 µM [inhibitor, single point]"}
{"smiles": "O=C(Nc1ccccc1C(=O)N/N=C/c1ccco1)c1ccccc1Cl", "Potency": "active: 3.55 µM"}
{"smiles": "C=C1[C@@H](C)[C@H]2[C@H](Cc3ccccc3)NC(=O)[C@]23[C@H](OC(C)=O)/C=C/[C@](C)(O)C(=O)[C@@H](C)C/C=C/[C@H]3[C@@H]1O", "Potency": "inconclusive: 10 µM [inhibitor, partial curve]"}
{"smiles": "O=c1[nH]c(=S)n(CCC2=CCCCC2)c(O)c1C=NC1CCN(Cc2ccccc2)CC1", "activity change, negative = inhibition": "inactive: 20.3%"}
{"smiles": "Cc1ccsc1C(=O)C1CCCN(Cc2cnc(N(C)C)s2)C1", "note": "(stereo unspecified)", "Potency": "inconclusive: 11.2 µM [activator, partial curve, poor fit]"}
{"smiles": "C/C(=N\\Nc1ccccc1)c1c(O)n(-c2ccccc2)c(=O)[nH]c1=O", "activity change, negative = inhibition": "inactive: -2.46%"}
{"smiles": "C/C(=C\\C(=O)c1ccc(Br)cc1)NCc1ccccc1", "Potency": "inconclusive: 7.94 µM [activator, partial curve]"}
{"smiles": "COC(=O)C1=CCCN(C)C1", "Potency": "inactive"}
{"smiles": "CN1CCC(O)(c2ccccc2)C(C(=O)c2ccccc2)C1", "note": "(stereo unspecified)", "Potency": "inconclusive: 22.4 µM [inhibitor, single point]"}
{"smiles": "CCCCn1c(O)c(C(C)=NCc2ccc(F)cc2)c(=O)[nH]c1=O", "Potency": "inconclusive: 15.8 µM [activator, single point]"}
